Percent effect of library compounds

From ChEMBL document CHEMBL3988442, “University of Dundee, Small-Polar-MMV Screening Library” (2021).

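Phenotypic screen: M. tuberculosis growth, cholesterol and DPPC medium, 4 days; the read-out is not stated. Tested at 50 µM. The record gives no direction; compounds that gave an IC50 in retests scored well above the rest, so higher reads as more growth inhibition. Size under these conditions: about 69,000 compounds, about 370 of them at 50% or above in at least one test.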

Each number is a percent effect as filed. The record does not define 0% and 100%; most values in the screen are far below 50% and negative numbers occur (in some assays of this library far below -100). This is an unselected part of the compounds tested. Two or more numbers in one place are separate tests of the same structure; such repeats can differ widely.

| SMILES | Percent Effect |
|---|---|
| `Cc1nnc(C2CCN(c3ncccn3)CC2)o1` | 0.08554% |
| `Cc1ccc(N2CCCC(c3[nH]ncc3Cc3ccccc3)C2)nn1` (centres unmarked) | 2.755% and 10.99% |
| `[H][C@@]12CN(Cc3nccs3)C[C@]1([H])CN(C(=O)c1cnc(C)cn1)C2` | -8.961% |
| `Cc1nc2[nH]cnc(Nc3cc(C)n(C)n3)c-2n1` | -17.68% |
| `CCN1C(=O)CC(c2ccccc2)C12CCN(CC1CCOCC1)CC2.O=C(O)C(F)(F)F` (centres unmarked) | 7.853% |
| `Cc1noc(NCc2cc(F)ccc2F)n1` | -5.216% |
| `CCc1nccn1C1CCCN(C(=O)CCOCC(F)(F)F)C1` (centres unmarked) | 10.8% |
| `CCc1[nH]c(C2(N)CCCC2)nc(=O)c1C` | -20.06% |
| `COCc1nc(C(=O)N2CCCC2Cn2cc(C)cn2)cs1` (centres unmarked) | -1.924% |
| `CC(C)N(CC1CCCN(Cc2ccon2)C1)C(=O)OC(C)(C)C` (centres unmarked) | 7.24% and -5.816% |
| `CC(C)NC(=O)N1CCC2(CC1)CCn1c(C3CC3)cnc12` | -23.23% |
| `O=C(O)C(F)(F)F.[H][C@@]12COC[C@]1(C(=O)NCC1CC1)CN(Cc1scnc1C)C2` | 0.4036% |
| `Cn1cnnc1C1CCCN(C(=O)c2ccccn2)C1` (centres unmarked) | -25.61% |
| `CNC(=O)c1ccc(C(=O)N2CCCCC2Cn2cc(C)cn2)cn1` (centres unmarked) | -7.092% |
| `CC(C)NC(=O)COc1nc(C(C)(C)C)no1` | 4.938% |
| `CC(CO)NC(=O)c1ccc(NCc2ccccc2)cc1` (centres unmarked) | -13.51% |
| `Cn1ccnc1C1CCN(S(=O)(=O)c2ccc3oc(=O)[nH]c3c2)CC1` | -14.4% |
| `Cc1cnc(N(C)Cc2cnc3ccccc3n2)nc1N(C)C` | -3.103% |
| `O=C(O)C(F)(F)F.O=C(O)C(F)(F)F.[H][C@]12CN(C)C[C@@]1(C(=O)O)CCCN(Cc1ccsc1)C2` | -8.865% |
| `[H][C@]12CCN(c3ncccn3)C[C@]1(COC)CC[C@@H](N1CCOCC1)C2` | 1.759% |
| `COc1cccc(CNC[C@@]2(COc3cccnc3)C[C@@H](O)[C@@H](O)C2)c1.Cl.Cl` | -26.42% |
| `Cn1c(C2CC2)nc2cc(NC(=O)C3CCOC3)ccc21` (centres unmarked) | 1.016% |
| `COc1ccccc1-n1nc(-c2ccco2)n(CC(=O)NC(C)C)c1=O` | 12.04% |
| `CSCC(CCO)NC(=O)Nc1ccc(Br)cc1` (centres unmarked) | 6.227% |
| `Cc1nonc1CN(C)Cc1nc(-c2cccc(F)c2F)oc1C` | 1.448% |
| `[H][C@@]12COC[C@@H](Cc3nc(C)no3)[C@]1([H])CN(S(C)(=O)=O)C2` | 6.055% |
| `CO[C@@H]1CCN(Cc2nccs2)C[C@@H]1Cc1ccccc1.O=C(O)C(F)(F)F` | 3.449% |
| `Cc1cc(N2CCC(c3n[nH]c4nccnc34)C2)ncn1` (centres unmarked) | -40.32% |
| `CC(=O)c1ccc(S(=O)(=O)N2CCOC(Cn3ccnc3)C2)cc1` (centres unmarked) | -1.2% |
| `COc1ccc(C2SCC(=O)Nc3ccsc32)cc1OC` (centres unmarked) | -12.59% and -1.759% |
| `Cc1ccc(C(=O)N2CCCC(c3nncn3C)C2)c(C)c1` (centres unmarked) | -3.409% |
| `O=C(c1csc(-c2cccs2)n1)N1CCCC1Cn1cccn1` (centres unmarked) | -18.37% |
| `O=C(NCCn1cccn1)c1nnc2ccccc2n1` | -12.83% |
| `Cn1c(C(F)(F)F)nn(CCNC(=O)c2nc3ccccc3s2)c1=O` | 14.48% |
| `CN(CCCN1CCOCC1)[C@@H]1c2ccccc2C2(CCNCC2)[C@H]1O` | -4.235% |
| `CN(Cc1n[nH]c2c1CCCC2)c1nc(C2CC2)nc2c1CCNCC2` | 25.86% |
| `CN(C)CCCNCC1CCOC(C)(C)C1` (centres unmarked) | 1.503% |
| `[H][C@@]12COC[C@H](C(=O)N3CCOCC3)[C@]1([H])CN(CC1CCC1)C2` | 22.45% |
| `Cn1nccc1C(=O)Nc1cc(C(F)(F)F)c[nH]c1=O` | -3.486% |
| `Cc1nccc(C2CCCCN2Cc2ccc(F)cc2)n1` (centres unmarked) | 2.349% |
| `[H][C@@]12CNC[C@]1([H])[C@H]2CN1CCCn2nc(CNC(=O)N(C)C)cc2C1` | 3.763% and -3.599% |
| `CCCc1ccc(S(=O)(=O)NC(=O)CCC2CCCO2)cc1` (centres unmarked) | -15.48% |
| `COc1ncccc1CNC(=O)NC1CCOc2ccccc21` (centres unmarked) | 0.003217% |
| `Cc1ccccc1C(CC(=O)NCC(N)=O)c1ccccc1` (centres unmarked) | 0.9934% |
| `CCOCC1CN(C(=O)c2cnoc2C)Cc2cn(CC3CC3)nc21` (centres unmarked) | 10.11% |
| `Cc1cnn(C2CCCN(C(=O)c3ccnc(N(C)C)c3)C2)c1` (centres unmarked) | 99.67% |
| `Cc1n[nH]c2c1C(c1ccncc1)SCC(=O)N2` (centres unmarked) | -11.82% |
| `CCNC(=O)NC[C@H]1COCc2nc3cc(C)ccc3n21` | -18.8% |
| `Cc1cccc(C(=O)N2CCn3cnc(COCC4CC4)c3C2)c1` | -35.4% and -6.506% |
| `CCOCC1CN(C(=O)c2cccs2)Cc2nn(C)cc21` (centres unmarked) | -11.68% |
| `CC(=O)N1CCC[C@@H](NCc2cccc(F)c2)[C@@H]1c1ccc(C)s1.Cl` | -11.09% |
| `COC1CCN(C(=O)Nc2ccccc2)CC(=O)N(C)c2ccccc21` (centres unmarked) | 14.94% |
| `Cc1cccc(CN2CC3(CCN(C(=O)N(C)C)CC3)OCC2=O)n1.O=C(O)C(F)(F)F` | 8.187% |
| `O=C(O)C(F)(F)F.[H][C@@]12CN(CC)C[C@]1(C(=O)N(C)C)CCC21CCN(S(=O)(=O)CC)CC1` | 13.3% |
| `COc1ccc(C(=O)N2CC(=O)N(CC3CC3)CC(O)C2)cc1` (centres unmarked) | 3.935% |
| `C[C@@H]1CN(C(=O)c2cnc(C3CC3)nc2)CC[C@@]1(O)C1CCOCC1` | 10.88% |
| `COCc1nc2ncc3c(=O)n(-c4ccc(C(C)=O)cc4)ccc3n2n1` | -9.58% and -2.912% |
| `CN(CC1(CO)CCOCC1)[C@@H]1c2ccccc2C2(CCNCC2)[C@H]1O` | 8.591% |
| `Cc1nc(C)n(CC2CCCN2Cc2nc(-c3ccoc3)no2)n1` (centres unmarked) | -7.719% |
| `CC1c2ncc(CN3CCN(C)CC3)n2CCN1Cc1ccccn1.O=C(O)C(F)(F)F.O=C(O)C(F)(F)F.O=C(O)C(F)(F)F.O=C(O)C(F)(F)F` (centres unmarked) | -10.67% |
| `Cc1nc(C)n(CC2CCCN2Cc2cccc3c2OCCO3)n1` (centres unmarked) | 7.363% |
| `Fc1ccccc1CN1CCCC(NC2CCOCC2)C1` (centres unmarked) | 22.59% |
| `c1ncn(CC2CN(Cc3csc(C4CCCC4)n3)CCO2)n1` (centres unmarked) | -6.59% |
| `CNC(=O)c1ccc(CNC(=O)c2cc(C(C)C)n(C)n2)cc1` | -11.25% |
| `Cc1noc(C)c1NC(=O)Cn1cc(Br)ccc1=O` | 0.5962% |
| `Cc1ccccc1N1CCCN(c2ccncn2)CC1` | -11.17% |
| `Cc1cnccc1NC(=O)CCc1ccsc1` | -0.2499% and -77.34% |
| `O=C(NCCNc1ncccn1)C1CCN(c2ncccn2)CC1` | -1.893% |
| `COCC(=O)NCc1ccc(-c2ccccc2C(=O)O)cn1` | 23.63% and -2.769% |
| `Cc1cnn(CC2CCN(CC(O)c3ccccc3Cl)CC2)c1` (centres unmarked) | -3.826% |
| `Cc1noc(CCCC(=O)NCCc2cc3ccccc3[nH]2)n1` | 6.874% |

Some entries from above, unchanged:

| SMILES | Percent Effect |
|---|---|
| `Cc1n[nH]c2c1C(c1ccncc1)SCC(=O)N2` (centres unmarked) | -11.82% |
| `COc1ncccc1CNC(=O)NC1CCOc2ccccc21` (centres unmarked) | 0.003217% |
| `O=C(NCCn1cccn1)c1nnc2ccccc2n1` | -12.83% |
| `Cc1cccc(CN2CC3(CCN(C(=O)N(C)C)CC3)OCC2=O)n1.O=C(O)C(F)(F)F` | 8.187% |
| `COC1CCN(C(=O)Nc2ccccc2)CC(=O)N(C)c2ccccc21` (centres unmarked) | 14.94% |